From article doi:10.1101/289637
Like-named read-outs stand apart in the source and are kept apart here. No constants are given. Whether binding was seen depends on the method and setting. In cells and extracts the contact can be indirect. Some binding calls cover weakened binding; strength is not graded here. For some of these results: Sequences can lack the tags named with a protein.

Amino acid sequences for entries named in this document (tags omitted).
UniProt Q13616: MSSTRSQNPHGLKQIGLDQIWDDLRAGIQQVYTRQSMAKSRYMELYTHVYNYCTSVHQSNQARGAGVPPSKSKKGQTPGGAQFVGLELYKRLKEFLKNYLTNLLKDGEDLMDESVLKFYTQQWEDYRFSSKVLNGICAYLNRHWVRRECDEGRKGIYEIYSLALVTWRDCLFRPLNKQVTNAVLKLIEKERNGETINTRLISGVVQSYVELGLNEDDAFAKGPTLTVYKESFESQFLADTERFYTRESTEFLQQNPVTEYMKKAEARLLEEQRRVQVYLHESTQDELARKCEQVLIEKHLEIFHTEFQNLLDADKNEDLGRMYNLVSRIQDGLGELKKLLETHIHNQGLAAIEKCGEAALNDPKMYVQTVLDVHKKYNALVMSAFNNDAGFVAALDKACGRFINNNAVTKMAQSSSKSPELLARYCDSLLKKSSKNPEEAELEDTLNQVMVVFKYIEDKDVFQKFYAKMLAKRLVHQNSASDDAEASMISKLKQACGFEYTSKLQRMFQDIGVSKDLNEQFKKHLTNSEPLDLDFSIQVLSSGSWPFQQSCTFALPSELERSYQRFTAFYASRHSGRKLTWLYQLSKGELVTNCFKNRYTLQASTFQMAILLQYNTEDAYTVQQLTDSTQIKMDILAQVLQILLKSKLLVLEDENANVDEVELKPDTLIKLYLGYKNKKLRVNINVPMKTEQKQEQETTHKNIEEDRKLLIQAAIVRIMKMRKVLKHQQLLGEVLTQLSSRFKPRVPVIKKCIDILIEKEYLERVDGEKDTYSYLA
UniProt P29466: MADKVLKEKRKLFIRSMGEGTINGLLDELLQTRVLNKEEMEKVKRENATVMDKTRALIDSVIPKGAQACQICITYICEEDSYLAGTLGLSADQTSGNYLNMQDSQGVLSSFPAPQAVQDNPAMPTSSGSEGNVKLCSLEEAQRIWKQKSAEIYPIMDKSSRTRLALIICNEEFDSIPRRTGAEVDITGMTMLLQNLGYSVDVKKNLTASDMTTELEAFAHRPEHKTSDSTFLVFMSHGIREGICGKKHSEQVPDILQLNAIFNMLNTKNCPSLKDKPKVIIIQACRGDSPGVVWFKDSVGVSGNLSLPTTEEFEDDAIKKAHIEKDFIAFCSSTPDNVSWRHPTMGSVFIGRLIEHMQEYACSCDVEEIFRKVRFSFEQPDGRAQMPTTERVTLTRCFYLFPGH

Legend:
Test in all cases: co-IP
[1] = molecular target: HA-NLRP3 (UniProt Q96P20)
[2] = molecular target: 3XFlag-Cullin1 (UniProt Q13616)
[3] = molecular target: 3XFlag-Cullin1 (UniProt Q13616); remark: listed apart in the source
[4] = molecular target: endogenous CUL1 (THP-1 macrophages) (human (endogenous in THP-1)) (UniProt Q13616)
[5] = molecular target: HA-NLRP3 (UniProt Q96P20); remark: listed apart in the source

Molecule: 3XFlag-ATP1β3 (from UniProt P54709 1-279)
- binding [1]: no binding

Molecule: HA-NLRP3 (from UniProt Q96P20 1-1036)
- binding [2]: binds

Molecule: NLRP3 (pcDNA3.1(+)-NLRP3, no tag named) (from UniProt Q96P20 1-1036)
- binding [3]: binds
- binding [2]: binds

Molecule: endogenous Casp-1 (THP-1 macrophages) (from UniProt P29466 1-404)
- binding [4]: no binding

Molecule: endogenous NLRP3 (THP-1 macrophages) (from UniProt Q96P20 1-1036)
- binding [4]: binds

B1: 3XFlag-PGM1 (protein, UniProt P36871 1-562)
chain: MVKIVTVKTQAYQDQKPGTSGLRKRVKVFQSSANYAENFIQSIISTVEPAQRQEATLVVGGDGRFYMKEAIQLIARIAAANGIGRLVIGQNGILSTPAVSCIIRKIKAIGGIILTASHNPGGPNGDFGIKFNISNGGPAPEAITDKIFQISKTIEEYAVCPDLKVDLGVLGKQQFDLENKFKPFTVEIVDSVEAYATMLRSIFDFSALKELLSGPNRLKIRIDAMHGVVGPYVKKILCEELGAPANSAVNCVPLEDFGGHHPDPNLTYAADLVETMKSGEHDFGAAFDGDGDRNMILGKHGFFVNPSDSVAVIAANIFSIPYFQQTGVRGFARSMPTSGALDRVASATKIALYETPTGWKFFGNLMDASKLSLCGEESFGTGSDHIREKDGLWAVLAWLSILATRKQSVEDILKDHWQKYGRNFFTRYDYEEVEAEGANKMMKDLEALMFDRSFVGKQFSANDKVYTVEKADNFEYSDPVDGSISRNQGLRLIFTDGSRIVFRLSGTGSAGATIRLYIDSYEKDVAKINQDPQVMLAPLISIALKVSQLQERTGRTAPTVIT
- binding [5]: no binding
